Data as given in article PMC7895950.

Protein sequences, listed by entry. Tags and fused reporters are not part of them.
UniProt Q99496: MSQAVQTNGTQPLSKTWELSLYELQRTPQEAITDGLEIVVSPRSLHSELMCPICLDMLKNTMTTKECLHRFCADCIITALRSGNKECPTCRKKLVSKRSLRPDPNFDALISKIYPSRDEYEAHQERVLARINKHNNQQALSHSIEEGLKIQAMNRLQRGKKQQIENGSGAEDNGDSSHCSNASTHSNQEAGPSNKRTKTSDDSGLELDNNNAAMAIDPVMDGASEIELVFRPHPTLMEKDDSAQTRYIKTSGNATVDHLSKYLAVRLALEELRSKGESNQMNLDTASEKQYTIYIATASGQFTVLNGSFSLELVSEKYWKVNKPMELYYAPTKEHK
UniProt P17844: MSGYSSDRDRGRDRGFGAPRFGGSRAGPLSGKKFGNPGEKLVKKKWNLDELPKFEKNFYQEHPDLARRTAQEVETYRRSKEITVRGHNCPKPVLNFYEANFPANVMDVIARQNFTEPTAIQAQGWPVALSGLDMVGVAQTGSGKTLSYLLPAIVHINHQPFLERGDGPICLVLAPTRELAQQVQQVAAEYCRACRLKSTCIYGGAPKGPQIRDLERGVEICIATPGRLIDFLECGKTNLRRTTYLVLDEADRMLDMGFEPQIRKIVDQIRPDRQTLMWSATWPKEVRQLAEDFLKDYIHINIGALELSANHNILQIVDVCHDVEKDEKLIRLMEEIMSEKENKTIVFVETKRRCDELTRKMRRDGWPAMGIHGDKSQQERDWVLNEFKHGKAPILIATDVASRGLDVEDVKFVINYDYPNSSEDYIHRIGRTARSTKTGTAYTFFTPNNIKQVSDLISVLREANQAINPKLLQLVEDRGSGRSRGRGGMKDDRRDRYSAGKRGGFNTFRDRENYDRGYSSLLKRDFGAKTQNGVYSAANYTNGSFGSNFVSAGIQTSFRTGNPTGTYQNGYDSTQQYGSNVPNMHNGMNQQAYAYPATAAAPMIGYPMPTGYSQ
UniProt O00571: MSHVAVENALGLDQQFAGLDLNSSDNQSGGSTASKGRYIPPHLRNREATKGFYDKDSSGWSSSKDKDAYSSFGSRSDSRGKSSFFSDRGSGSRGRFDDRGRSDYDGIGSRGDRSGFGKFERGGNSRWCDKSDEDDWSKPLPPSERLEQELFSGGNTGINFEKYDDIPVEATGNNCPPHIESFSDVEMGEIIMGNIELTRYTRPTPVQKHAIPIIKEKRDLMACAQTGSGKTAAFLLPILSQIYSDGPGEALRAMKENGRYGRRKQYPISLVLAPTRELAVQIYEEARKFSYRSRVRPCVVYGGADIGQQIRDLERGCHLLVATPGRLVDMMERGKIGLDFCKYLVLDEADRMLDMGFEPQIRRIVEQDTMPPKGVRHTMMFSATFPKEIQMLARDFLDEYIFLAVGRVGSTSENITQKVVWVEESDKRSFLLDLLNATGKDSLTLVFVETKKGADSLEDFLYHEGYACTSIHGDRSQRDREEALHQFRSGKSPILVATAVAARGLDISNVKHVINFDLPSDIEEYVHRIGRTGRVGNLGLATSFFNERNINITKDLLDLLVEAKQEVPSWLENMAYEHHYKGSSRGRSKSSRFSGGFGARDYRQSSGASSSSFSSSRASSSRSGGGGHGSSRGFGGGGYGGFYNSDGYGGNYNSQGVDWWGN

Target: Ring1b (endogenous, breast cell lines) (human (endogenous in MCF-10A, MCF-7, MDA-MB-231)) (UniProt Q99496)
Assay: affinity purification with mass spectrometry; lysates of multiple breast cell lines, IP with anti-Ring1b antibody, SDS-PAGE, silver staining, LC-MS/MS; RIPA lysates

Row | Substance | binding
1 | DDX5 (endogenous, breast cell lines) (from UniProt P17844 1-614) | binds
2 | DDX3X (endogenous, breast cell lines) (from UniProt O00571 1-662) | binds

These are yes or no findings as the source states them, for the method shown. In cells and extracts the contact can be indirect. A yes stands for co-enrichment or nearness to the bait. Other partners may have been found.
